For test [1], the target named is IN-box (790-844 aa; IN-box^ΔC) fused to the N-terminus of the Mxe intein-chitin binding domain protein (X. laevis) (UniProt O13024). Put plainly: co-purification; co-expressed in E. coli; IMAC, removal of 6xHis-GB1 from Aurora B by TEV, then held on chitin beads by the Mxe intein-chitin binding domain on IN-box^ΔC; eluted by overnight incubation with 50 mM MESNA.
The target of test [2] is IN-box (790-856 aa) of INCENP from X. laevis, phosphorylated at Ser849 and Ser850 of the TSS motif, as in [Aurora B/IN-box]^all-P (X. laevis) (UniProt O13024). Put plainly: mass photometry; purified enzyme complex kept at 100 nM and diluted to 10 nM immediately before the measurement; 300 mM NaCl, 25 mM HEPES pH 7.5, 2 mM DTT; Refeyn Two MP; both purified.
Test [3] addresses IN-box (790-856 aa) of INCENP from X. laevis, unphosphorylated, as in [Aurora B/IN-box]^no-P (X. laevis) (UniProt O13024). The test is described as above.

Amino acid sequences for entries named in this document (tags omitted). A change or cut given only in a name is not applied to a line headed by its entry. Chains listed by the source or under a name are the forms on record and can include a tag or linker. Residues count along the entry.
IN-box (790-856 aa) of INCENP from X. laevis, unphosphorylated, as in [Aurora B/IN-box]^no-P (O13024, residues 790-856): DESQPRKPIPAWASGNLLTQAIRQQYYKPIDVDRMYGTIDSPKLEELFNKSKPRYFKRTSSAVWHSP
IN-box (790-844 aa; IN-box^ΔC) fused to the N-terminus of the Mxe intein-chitin binding domain protein (O13024, residues 790-844): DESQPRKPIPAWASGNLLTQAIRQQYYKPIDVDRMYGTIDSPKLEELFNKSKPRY
UniProt Q6DE08: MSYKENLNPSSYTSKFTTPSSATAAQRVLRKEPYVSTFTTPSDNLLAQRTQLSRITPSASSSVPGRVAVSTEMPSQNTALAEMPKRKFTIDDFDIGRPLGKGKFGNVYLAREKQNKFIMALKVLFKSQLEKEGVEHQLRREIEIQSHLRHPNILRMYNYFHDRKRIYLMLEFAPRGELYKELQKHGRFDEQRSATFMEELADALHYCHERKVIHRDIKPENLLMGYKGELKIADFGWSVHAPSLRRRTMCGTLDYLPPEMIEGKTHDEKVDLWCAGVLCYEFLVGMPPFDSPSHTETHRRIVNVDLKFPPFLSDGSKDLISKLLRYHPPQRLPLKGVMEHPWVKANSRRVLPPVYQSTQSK

Results are given in words; binding and its absence hold for the method and conditions named. Some results given as binding are weak or reduced against the parent protein; the word gives no strength.

Turning to “Aurora B (59-361 aa) from X. laevis, dephosphorylated, of the [Aurora B/IN-box]^IN-ΔC construct (from UniProt Q6DE08 59-361) (domain or fragment)”, the binding result in test [1] is listed as “binds”.

With “Aurora B (59-361 aa) from X. laevis, phosphorylated at Thr248, of the [Aurora B/IN-box]^IN-ΔC construct (from UniProt Q6DE08 59-361) (domain or fragment)”, in test [1], the binding entry is given as “binds”.

In the case of “Aurora B (60-361 aa) from X. laevis, phosphorylated at Thr248, as in [Aurora B/IN-box]^all-P (from UniProt Q6DE08 60-361) (domain or fragment)”, the binding entry in test [2] is “binds”.

Consider “Aurora B (60-361 aa) from X. laevis, unphosphorylated, as in [Aurora B/IN-box]^no-P (from UniProt Q6DE08 60-361) (domain or fragment)”, for which the binding entry in test [3] was “binds”.

The values above are taken from publication PMC10259393, “The structural basis of the multi-step allosteric activation of Aurora B kinase” (eLife, 2023).
